Literature values, collected in patent publication US20220218740A1, “OPIOID-FREE COMPOSITIONS FOR ANESTHESIOLOGICAL APPLICATIONS AND RELATED METHODS AND SYSTEMS” (Vaporworks Nursing Anesthesia Inc., priority 2020, published 2022).

Settings: in vivo

period of insulin resistance after administration: 24 h
SMILES: C[C@@H]1C[C@H]2[C@@H]3CCC4=CC(=O)C=C[C@]4(C)[C@@]3(F)[C@@H](O)C[C@]2(C)[C@@]1(O)C(=O)COP(=O)(O)O [Dexamethasone, Dexamethasone Sodium phosphate]
